Article PMC4279683
The exact form of at least one protein or probe is not confirmed.

Columns and labels:
[1] = tested on: GabR-His (Bacillus thuringiensis subsp. kurstaki HD73); test: competition EMSA; details: 5-fold excess unlabeled PgabT competes, 8 uM GabR; 10 mM Tris-HCl pH 7.5, 0.5 mM DTT, 50 mM NaCl, 500 ng poly(dI:dC), 4% glycerol, 25 C, 20 min; 0.1 ug probe in 20 ul (EMSA), 120 ng in 50 ul (footprinting); recombinant protein; residues 1-455; label: 5' 6-FAM; probe letters rebuilt from the primers and the genome
[2] = tested on: GabR-His (Bacillus thuringiensis subsp. kurstaki HD73); test: EMSA; details: 10 mM Tris-HCl pH 7.5, 0.5 mM DTT, 50 mM NaCl, 500 ng poly(dI:dC), 4% glycerol, 25 C, 20 min, 0.1 ug probe in 20 ul (EMSA), 120 ng in 50 ul (footprinting), recombinant protein, residues 1-455, label: 5' 6-FAM, probe letters rebuilt from the primers and the genome
[3] = tested on: GabR-His (Bacillus thuringiensis subsp. kurstaki HD73); test: DNase I footprinting; details: 3.2, 4.8 and 8 uM GabR, 96 bp protected; 10 mM Tris-HCl pH 7.5, 0.5 mM DTT, 50 mM NaCl, 500 ng poly(dI:dC), 4% glycerol, 25 C, 20 min; 0.1 ug probe in 20 ul (EMSA), 120 ng in 50 ul (footprinting); recombinant protein; residues 1-455; label: 5' 6-FAM; probe letters rebuilt from the primers and the genome

Measured: binding result

GATTGCTATGCAATTGGGGTGCTATCTGGTACGGGAGACCGTCCAACATTAGAACCACTTGCTGATTTAGTGTTAGATTCTGTTGGAGAGTTTATTTCTCAATCGGGTGAGTTTTTCTGGGAGAAAGAAAAGTCTAATGTGTAAGGAAAATAAGTCTATAAAGACTCTTAATGAGTCTTTATAGACTTATTTTTTATGCCTGGATACAAAGAATATAGGATAAATGCTAGAAAAGAAAGTTGGCATACATTTTGCAATAAAAAGAGAAAACAATGTAAAGAAAAGG (double strand) [PgabT promoter fragment (286 bp)]
binds: [1] | [2]; GABA (0.1-50 uM), 2.5 uM GabR, binding not enhanced | [2]; SSA (0.1-50 uM), 2.5 uM GabR, binding not enhanced | [2]; poly(dI:dC) 500 ng | [3]
